The values below come from the supplement of paper PMC12578635.

Some of the results follow. Rule as the data show it: active = 150% or more and inactive = the rest. Most values come without repeats; read them as rough.

For the assay, the system named is Staphylococcus aureus JE2-lux inside RAW 264.7 macrophages. Nature of the assay: intracellular bacterial bioluminescence relative to DMSO vehicle; higher = higher intracellular bacterial metabolic activity. Particulars: 10 µM; treatment time 4 h; gentamicin 50 µg/ml.
Regarding `Cc1nnc(N2CCC(C(=O)O)CC2)c2nn(-c3ccccc3)c(C)c12`, the intracellular bacterial bioluminescence was inactive: 111%.
On to `Cc1onc(-c2ccncc2)c1C(=O)N1CCn2c(C)ccc2C1C(C)C` (stereo not drawn), for which the intracellular bacterial bioluminescence was inactive: 140%.
As to `O=C(NCc1ccc2c(c1)OCO2)c1cnc2ccc(F)cc2c1O`, the intracellular bacterial bioluminescence was inactive: 118%.
In the case of `CC(C)(C)c1ncc(C(=O)NC(c2ccccc2)c2cccnc2)cn1` (stereo not drawn), the intracellular bacterial bioluminescence was inactive: 111%.
The value for `COc1ccc2c(c1OC)C(=O)OC2Nc1ccc(CC(=O)O)cc1` (stereo not drawn) was inactive: 119%; that for `Cc1cnc(C(=O)Nc2ccc(C(=O)NC3CC3)cc2)cn1` was inactive: 110%; that for `CC(NC(=O)c1ccc2c(=O)[nH]c3c(-c4cccc(C(F)(F)F)c4)nnn3c2c1)c1ccc(F)cc1` (stereo not drawn) was inactive: 109%.
On to `COc1cccc(NC(=O)N2CCCC(C(=O)NC3CCCCC3C)C2)c1` (stereo not drawn), for which the intracellular bacterial bioluminescence was inactive: 113%.
The value for `Cc1ccc([N+](=O)[O-])c(OCCSc2nnc3sc4ccccc4n23)c1` was inactive: 96.4%; that for `CCOc1ccc2c(c1)SC(CC(=O)Nc1sc(C)cc1C(=O)OC)C(=O)N2` (stereo not drawn) was inactive: 72.6%.
The value for `CCn1cc(SCC(=O)NCc2ccccc2)c2ccccc21` was inactive: 91.8%.
On to `CCOc1ccc2ccccc2c1C(=O)Nc1c2c(nn1-c1ccc(F)cc1)CS(=O)C2` (stereo not drawn), for which the intracellular bacterial bioluminescence was inactive: 85%.
The value for `COc1ccc(OC)c(CNC(=O)Cn2cccc2-c2nc(-c3ccc(C)cc3)cs2)c1` was inactive: 89.8%.
Regarding `Oc1cccc(C2=NN3C(C2)c2cc(Cl)ccc2OC3c2cccnc2)c1` (stereo not drawn), the intracellular bacterial bioluminescence was inactive: 122%.
For the compound `C=CCn1c(=N)c(C(=O)NCCCOC)cc2c(=O)n3cc(C)ccc3nc21`, the intracellular bacterial bioluminescence was inactive: 111%.
For the compound `COc1cc(C2NC(=O)NC3=C2C(=O)N(Cc2ccc(F)cc2)C3)cc(OC)c1OC` (stereo not drawn), the intracellular bacterial bioluminescence is inactive: 92.8%.
Take `Cc1ccc(-c2cnc3ccccc3n2)cc1NC(=O)CN1CC(C)OC(C)C1` (stereo not drawn): the intracellular bacterial bioluminescence was inactive: 103%.
In the case of `Cc1nc(SCC(=O)c2ccc3c(c2)OCCO3)c2c3c(sc2n1)CCC3`, the intracellular bacterial bioluminescence is inactive: 108%.
The value for `COc1cc(NC(=O)Nc2c(-c3cccnc3)[nH]c3ccc(Cl)cc23)cc(OC)c1` was inactive: 117%; that for `CC1CCN(CC(O)Cn2c3ccccc3c3ccccc32)CC1` (stereo not drawn) was inactive: 101%.
Regarding `O=C1CC(c2ccccc2)=NN1c1ccc2ccccc2c1`, the intracellular bacterial bioluminescence was inactive: 92.5%.
Take `O=C(NC1CCN(C(=O)CNCc2ccc3c(c2)OCO3)CC1)c1ccccc1F`: the intracellular bacterial bioluminescence was inactive: 105%.
The value for `N=C1NC(=O)C(CC(=O)Nc2ccc(N3CCOCC3)cc2)S1` (stereo not drawn) was inactive: 97.8%; that for `CC(=O)N1N=C(c2ccc(NS(C)(=O)=O)cc2)CC1c1ccc2c(c1)OCO2` (stereo not drawn) was inactive: 95.3%; that for `CCOc1cccc2sc(NNC(=O)c3ccccc3)nc12` was inactive: 65.7%.
With `N#C/C(C(=O)NCCc1ccccc1)=C1/N=C(NC(=O)c2cccs2)c2ccccc21`, the intracellular bacterial bioluminescence was inactive: 112%.
In the case of `O=C(NC1CCCCC1)NC1(C(=O)Nc2ccc3c(c2)OCCO3)CCCCC1`, the intracellular bacterial bioluminescence is inactive: 137%.
The value for `COc1cccc(NC(=S)NCCCNc2nc3c(C)cc(C)cc3cc2C#N)c1` was inactive: 90.5%.
As for `O=C(N/N=C/c1cc([N+](=O)[O-])ccc1O)c1ccc([N+](=O)[O-])cc1`, the intracellular bacterial bioluminescence is inactive: 107%.
The value for `C=C(C)Cn1c(SCCN2CCOCC2)nc2c1c(=O)[nH]c(=O)n2C` was inactive: 138%; that for `CCc1cnc2c(c1OC)c(=O)n(CC(=O)NCc1ccccc1)c(=O)n2C` was inactive: 105%; that for `Cc1cc(C)cc(/N=c2\oc3c(C)ncc(CO)c3cc2C(N)=O)c1` was inactive: 128%.
On to `NC1=NN(c2ccccc2)C(=O)/C1=N/Nc1ccc(-c2ccccc2)cc1`, for which the intracellular bacterial bioluminescence was inactive: 86.9%.
As to `O=C(NCc1cccnc1)C(=O)NCC(c1ccco1)N1CCN(c2ccc(F)cc2)CC1` (stereo not drawn), the intracellular bacterial bioluminescence is inactive: 76.9%.
As for `CC(C)(C)n1nc2c(c1NC(=O)c1ccc(Br)cc1)CS(=O)C2` (stereo not drawn), the intracellular bacterial bioluminescence was inactive: 118%.
The value for `O=C(NCc1cccs1)C1CCCN(C(=O)Nc2ccc(F)cc2)C1` (stereo not drawn) was inactive: 85.9%.
In the case of `O=C(Nc1nc2c(s1)CCc1ccccc1-2)C1CC1`, the intracellular bacterial bioluminescence was inactive: 97.1%.
Consider `Clc1ccc(CSc2nnc3ccc(-c4ccncc4)nn23)cc1`, for which the intracellular bacterial bioluminescence was inactive: 68.3%.
As for `Cc1sc2c(c1C)c(=O)nc1scc(CC(=O)O)n12`, the intracellular bacterial bioluminescence was inactive: 87.7%.
As for `O=C(CSc1ncnc2c1sc1nc3ccccc3cc12)N1CCOCC1`, the intracellular bacterial bioluminescence was inactive: 98.6%.
`Cc1cccc(NC(=O)Cn2cc(S(=O)(=O)Cc3ccccc3F)c3ccccc32)n1`: the intracellular bacterial bioluminescence is inactive: 116%.
`COC(=O)c1ccc(CSc2nncc(=O)n2N)o1`: the intracellular bacterial bioluminescence is inactive: 90%.
Regarding `COc1cccc2cc(C(=O)Nc3cccc(NC(=O)c4ccccn4)c3)c(=O)oc12`, the intracellular bacterial bioluminescence is inactive: 93.2%.
The value for `Cc1ccccc1C(NC(=O)c1cc2c([nH]c1=O)CCCCC2)c1ccncc1` (stereo not drawn) was inactive: 51.3%; that for `CCSc1ccccc1C(=O)N1CCN(c2nc3c(OC)ccc(C)c3s2)CC1` was inactive: 79%; that for `Cc1ccc(S(=O)(=O)c2cnc(SCC(=O)Nc3ccccc3)[nH]c2=O)cc1C` was inactive: 94.3%.
For `CN(C)S(=O)(=O)c1ccc(C(=O)Nc2sc3c(c2-c2nc4ccccc4s2)CCCC3)cc1`, the intracellular bacterial bioluminescence is inactive: 102%.
Regarding `CCOc1cc(C(=O)NCC(=O)N/N=C/c2ccccc2)cc(OCC)c1OCC`, the intracellular bacterial bioluminescence was inactive: 107%.
The value for `Cc1cccc2cc(C#N)c(NCCNS(=O)(=O)c3cccc(Cl)c3)nc12` was inactive: 117%; that for `Cc1c(S(=O)(=O)c2ccccc2)nnn1-c1ccccc1` was inactive: 110%; that for `S=C(Nc1ccccc1Cl)NC1CC2CCC(C1)N2Cc1ccccc1` (stereo not drawn) was inactive: 83.5%.
As to `Cc1nn(S(=O)(=O)c2ccccc2[N+](=O)[O-])c(C)c1Sc1ccccc1`, the intracellular bacterial bioluminescence was inactive: 14.8%.
The value for `O=C(CC1C(=O)Nc2ccccc2N1C(=O)c1cccs1)Nc1ccc(Cl)c(Cl)c1` (stereo not drawn) was inactive: 55.5%.
With `O=C1CCc2cc(S(=O)(=O)NCC(c3ccc(F)cc3)N3CCCC3)ccc2N1` (stereo not drawn), the intracellular bacterial bioluminescence is inactive: 101%.
Turning to `O=C(Nc1ccccc1F)c1ccnc(N2CCC(C(=O)NCc3ccc(F)cc3)CC2)c1`, the intracellular bacterial bioluminescence is inactive: 55.2%.
For `CCCCOc1ccc(-c2cc3c(N4CCC(C(=O)N5CCCC5)CC4)nccn3n2)cc1`, the intracellular bacterial bioluminescence was inactive: 110%.
With `CCc1ccccc1NC(=O)CN1N=NC2C(=O)N(c3ccc(F)c(F)c3)C(=O)C21` (stereo not drawn), the intracellular bacterial bioluminescence is inactive: 116%.
With `CCOC(=O)c1ccc(NC(=O)CSc2ncnc3c2nnn3Cc2ccccc2)cc1`, the intracellular bacterial bioluminescence is inactive: 58%.
`COc1ccc(NC(=O)c2ccc(Cn3c(=O)[nH]c4ccsc4c3=O)cc2)cc1`: the intracellular bacterial bioluminescence was inactive: 26.2%.
For `O=C(Nc1ccccn1)c1cccn2c(-c3ccccc3F)nnc12`, the intracellular bacterial bioluminescence was inactive: 95.3%.
The value for `COc1cccc2sc(N(CCCn3ccnc3)C(=O)c3ccc4c(c3)OCCO4)nc12` was inactive: 66.3%.
In the case of `COc1cccc(NC(=O)CSc2nnc(Cc3ccc(Cl)cc3)c(=O)[nH]2)c1`, the intracellular bacterial bioluminescence is inactive: 138%.
In the case of `CC1CCc2c(sc3ncn4c(=O)n(CCC(N)=O)nc4c23)C1` (stereo not drawn), the intracellular bacterial bioluminescence was inactive: 99.2%.
Turning to `Cc1cc(C)n(Cc2c(C(=O)NCc3c(C)nn(C)c3C)noc2C)n1`, the intracellular bacterial bioluminescence was inactive: 117%.
On to `Cc1cc(-c2csc(S(=O)(=O)N3CCN(CCOc4ccc(Cl)cc4)CC3)c2)on1`, for which the intracellular bacterial bioluminescence was inactive: 45.6%.
Take `Cn1c(=O)c2c(nc3n2CC(COc2ccc(Cl)cc2)O3)n(C)c1=O` (stereo not drawn): the intracellular bacterial bioluminescence was inactive: 55.3%.
Take `CC(C)c1csc(-c2csc(S(=O)(=O)NC3CCCCC3)c2)n1`: the intracellular bacterial bioluminescence is inactive: 15.5%.
As to `CC(=O)Nc1cccnc1-c1ccc(C(=O)NC2CCCc3ccccc32)cc1` (stereo not drawn), the intracellular bacterial bioluminescence was inactive: 92.7%.
`CCN(c1ccccc1)S(=O)(=O)c1ccc2[nH]c(=O)[nH]c2c1`: the intracellular bacterial bioluminescence was inactive: 103%.
Consider `CCOC(=O)c1sc(NC(=O)CSc2nc3sc(C(C)=O)c(C)c3c(=O)[nH]2)nc1C`, for which the intracellular bacterial bioluminescence is inactive: 94.4%.
The value for `NC(=O)c1ccccc1NC(=O)c1ccc2nncn2c1` was inactive: 103%; that for `Cc1nn(C)c(C)c1CNC(=O)c1cc(-c2ccccn2)nc2ccccc12` was inactive: 85.9%; that for `O=C1NC(=O)/C(=C/c2ccc(C(=O)Nc3ccc(C(=O)O)cc3)cc2)S1` was inactive: 89%.
For `N#CC1=C(N)OC2=C(C(=O)CCC2)C1c1ccc(-c2cccc([N+](=O)[O-])c2)o1` (stereo not drawn), the intracellular bacterial bioluminescence is inactive: 55.4%.
Consider `O=c1nc2s/c(=C/c3ccccn3)c(=O)n2nc1-c1ccccc1`, for which the intracellular bacterial bioluminescence was inactive: 103%.
As to `COC(=O)c1ccccc1NC1SC(=O)N(c2cccc(C)c2)C1=O` (stereo not drawn), the intracellular bacterial bioluminescence was inactive: 82.4%.
As for `Cc1nc(-n2nc(C)c(CCC(C)C)c2O)sc1C(=O)Nc1ccc(Cl)cc1`, the intracellular bacterial bioluminescence is active: 155%.
The value for `O=C(CSCc1ccccc1)NCc1n[nH]c(=O)c2ccccc12` was inactive: 78.5%; that for `CC1CC(C)CN(S(=O)(=O)c2ccc(C(=O)Nc3ccc4ncsc4c3)cc2)C1` (stereo not drawn) was inactive: 130%.
As to `Cc1ccc(-c2noc(-c3cn(Cc4ccc(N)cc4)cn3)n2)cc1`, the intracellular bacterial bioluminescence was inactive: 67.7%.
For `COc1ccc(-c2nnc3sc(-c4ccc(Br)o4)nn23)cc1`, the intracellular bacterial bioluminescence was inactive: 65%.
With `O=C(NCc1nnnn1-c1ccc(F)cc1)Nc1ccc2c(c1)OCO2`, the intracellular bacterial bioluminescence was inactive: 79.6%.
As to `Cc1cccn2c(=O)nc(SCC(=O)N3CCCCCC3)nc12`, the intracellular bacterial bioluminescence was inactive: 142%.
On to `O=C(CSc1nc2[nH]ncc2c(=O)[nH]1)N1CCC(Cc2ccccc2)CC1`, for which the intracellular bacterial bioluminescence was inactive: 72.1%.
`O=C(Nc1cccc(C(=O)N2CCOCC2)c1)c1cnn(-c2ccc(F)cc2)c1`: the intracellular bacterial bioluminescence is inactive: 74.1%.
`Cc1nn2c(=O)cc(CSc3nnc(-c4ccc5c(c4)OCO5)o3)nc2s1`: the intracellular bacterial bioluminescence was inactive: 98.2%.
As for `CCOC(=O)c1cnn2c(C)c(Cc3ccccc3)c(C)nc12`, the intracellular bacterial bioluminescence is inactive: 79.6%.
On to `CCOc1ccc(C(=O)NCC(c2ccc3c(c2)CCN3C)N2CCCCC2)cc1` (stereo not drawn), for which the intracellular bacterial bioluminescence is inactive: 146%.
For the compound `Cn1cnnc1SCC(=O)Nc1nnc(-c2ccc(Br)cc2)s1`, the intracellular bacterial bioluminescence is inactive: 130%.
Consider `Cc1[nH]c(=O)[nH]c(=O)c1NC(=O)CSc1ccc(-c2ccc(F)cc2)nn1`, for which the intracellular bacterial bioluminescence was inactive: 119%.
For the compound `NS(=O)(=O)c1ccc(NC(=O)CCn2cnc3onc(-c4ccccc4Cl)c3c2=O)cc1`, the intracellular bacterial bioluminescence was inactive: 118%.
The value for `O=C(Nc1ccccc1F)N1CCc2nc(N3CCCC3)[nH]c(=O)c2C1` was inactive: 101%.
The value for `CC(C)N1CCn2c(nc3cc(NC(=O)CCc4ccccc4)ccc32)C1` was inactive: 53.4%.
Regarding `COC(=O)c1cc(C)sc1NC(=O)CC1Sc2ccc(C(F)(F)F)cc2NC1=O` (stereo not drawn), the intracellular bacterial bioluminescence was inactive: 133%.
Turning to `Cc1cc(Nc2nc(C(=O)N3CCC(N4CCCCC4)CC3)cc3occc23)ccc1Br`, the intracellular bacterial bioluminescence is active: 151%.
On to `CCC(C(=O)Nc1c(C(=O)Nc2ccc([N+](=O)[O-])cc2)oc2ccccc12)c1ccccc1` (stereo not drawn), for which the intracellular bacterial bioluminescence was inactive: 124%.
Consider `COc1ccccc1CNC(=O)c1nccn1Cc1ccccc1Cl`, for which the intracellular bacterial bioluminescence is inactive: 55.1%.
The value for `O=C1Nc2c(Cl)cc(Cl)cc2/C1=N\NC(=O)c1ccccc1O` was inactive: 92.7%.
